Record: PubChem BioAssay AID652243 (Drosophila RNAi Screening Center, 2013)

- Test: 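Fly genes required for human androgen receptor driven transcription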 (primary screen)
- System: Drosophila S2R+ cells
- Reagent: long dsRNA against Drosophila genes
- Timing: 72 h (48 h, then 24 h hormone)
- Treatment: synthetic androgen R1881 at 10 nM for 24 h
- Read-out: 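Per-well raw luminescence of the androgen-driven firefly reporter and of the Renilla control, two replicates each, without normalisation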
- Direction: firefly reporter light: higher = more light from androgen-responsive reporter; Renilla control light: higher = more constitutive control signal (cell number, transfection)
- Rule for the call: 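Across duplicate plates, a knock-down whose log firefly/Renilla ratio shifted a set fold down or up from the GFP/LacZ control mean was a hit; the downward cut appears as both 1.5 and 3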
- Calls: active = hit: reporter lowered or raised; inactive = no hit
The screen tested about 24,000 reagents; shown is an unselected part of those with a known target gene and a result. In the full data, 246 (1%) got an active call. 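Plates not normalised; calls are printed but the firefly/Renilla ratio behind them is not deposited; fold cut for lowering reported inconsistently.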 The raw values are shown without normalisation. Unmarked entries are inactive. A plus sign joins genes that one reagent is predicted to hit. No sequences are given here. The record does not give: the amount of reagent.

predicted target	amplicon	firefly reporter light, replicate 1	firefly reporter light, replicate 2	Renilla control light, replicate 1	Renilla control light, replicate 2
whe	DRSC20537	2.50e5	2.83e5	5.17e5	3.73e5
whe	DRSC26236	2.63e5	2.87e5	7.77e5	8.40e5
Cyp12b2	DRSC07364	84938	91186	1.10e6	1.36e6
CG16786	DRSC04281	3.91e5	3.59e5	3.19e6	2.45e6
GluProRS	DRSC14095	74799	92155	7.22e5	5.74e5
CG8997	DRSC01900	2.80e5	2.21e5	9.31e5	1.60e6
CG8997	DRSC28002	6.48e5	5.14e5	2.26e6	1.35e6
CG34144 (retired record)	DRSC18885	1.69e6	7.09e5	3.95e6	1.63e6
CG34144 (retired record)	DRSC19380	1.89e5 (active)	1.88e5	3.03e6	2.93e6
CG34144 (retired record)	DRSC23284	8.33e5	7.52e5	98702	95751
CG34144 (retired record)	DRSC38598	2.42e5	2.79e5	9.64e5	1.22e6
CG16854	DRSC02536	2.47e5	3.14e5	2.30e6	2.70e6
mRpL46	DRSC08391	58267	51914	6.85e5	5.45e5
Ras64B	DRSC08689	1.05e5	70639	1.27e6	6.85e5
Ras64B	DRSC26766	3.32e5	2.68e5	1.04e6	6.08e5
Exo70	DRSC10774	1.43e5	1.33e5	1.49e6	1.74e6
SPARC	DRSC14123	88703	1.26e5	1.75e6	2.14e6
SPARC	DRSC26381	3.63e5	3.19e5	1.04e6	9.71e5
SPARC	DRSC38983	4.55e5 (active)	4.67e5	1.77e6	1.89e6
CG32726	DRSC17521	7.80e5	6.18e5	1.04e6	8.04e5
CG11095	DRSC19375	58704	78358	6.11e5	5.68e5
CG11095	DRSC26123	2.69e5	2.83e5	6.47e5	6.39e5
spidey	DRSC17932	5.05e5	3.81e5	2.86e6	2.33e6
spidey	DRSC30107	8.43e5	7.55e5	1.17e6	1.12e6
Brms1	DRSC19896	3.11e5	2.05e5	2.46e6	2.61e6
CG32365	DRSC10040	1.08e5	1.20e5	1.95e6	1.60e6
obst-B	DRSC01987	1.20e6	1.13e6	2.06e6	2.24e6
Acadvl	DRSC07022	3.81e5	4.30e5	4.79e5	4.06e5
Acadvl	DRSC26484	1.88e5	1.23e5	3.72e5	3.88e5
ATPsynO	DRSC16780	43241	48943	6.13e5	4.81e5
ATPsynO	DRSC26306	2.11e5	2.31e5	8.05e5	8.01e5
Cyp6a20	DRSC07380	1.18e6	1.05e6	2.08e6	1.94e6
beat-Va	DRSC14192	2.73e5	2.26e5	2.27e6	2.08e6
Nt5a	DRSC08561	6.81e5	1.17e6	1.68e6	2.40e6
Hey	DRSC23030	4.91e5	6.72e5	1.31e6	1.55e6
GILT3	DRSC14672	2.83e5	2.63e5	2.58e6	2.81e6
CG34238	DRSC38652	8.68e5	7.06e5	2.43e6	2.13e6
SuUR	DRSC11292	2.49e5	2.79e5	3.31e6	1.53e6
CG10395	DRSC04840	8.49e5	5.92e5	1.35e6	1.39e6
CG10395	DRSC26811	3.94e5	3.26e5	7.59e5	6.16e5
CG30116	DRSC05935	5.34e5	6.08e5	8.06e5	8.61e5
CG30116	DRSC06685	1.10e5	1.19e5	1.79e6	1.33e6
a5	DRSC00798	1.30e5	85817	7.98e5	8.10e5
CG12069	DRSC14470	1.46e5	1.97e5	2.06e6	2.33e6
CG12069	DRSC26204	2.91e5	3.31e5	5.72e5	6.27e5
CG31219	DRSC15140	2.52e5	3.12e5	2.81e6	3.35e6
CG12546 + CG14452	DRSC11709	3.30e5	4.04e5	2.45e6	3.37e6
CG12546 + CG14452	DRSC29979	5.48e5	4.70e5	1.49e6	1.59e6
CG1835	DRSC20560	2.27e5	1.77e5	8.67e5	5.25e5
CG10725	DRSC09788	7.52e5	6.04e5	2.12e6	1.76e6
CG14402	DRSC02386	97756	1.18e5	1.24e6	8.83e5
B9d1	DRSC14993	1.79e5	2.17e5	2.17e6	2.18e6
inaF-C	DRSC38797	9.07e5	6.08e5	2.02e6	1.36e6
Gnpat	DRSC16960	1.63e5	1.43e5	2.30e6	2.17e6
CG33491 (retired record) + CG33496 (retired record) + CG33487 (retired record) + 1 more	DRSC22969	6.92e5	1.03e6	1.84e6	2.83e6
CG32453	DRSC21673	5.78e5	5.29e5	2.77e6	2.27e6
dunk	DRSC36514	8.16e5	6.18e5	1.19e6	1.58e6
dunk	DRSC36515	1.06e6	1.17e6	1.42e6	1.68e6

In a second layout: entries from further up
CG12069 [DRSC14470] | firefly reporter light, replicate 1: 1.46e5; firefly reporter light, replicate 2: 1.97e5; Renilla control light, replicate 1: 2.06e6; Renilla control light, replicate 2: 2.33e6
CG12069 [DRSC26204] | firefly reporter light, replicate 1: 2.91e5; firefly reporter light, replicate 2: 3.31e5; Renilla control light, replicate 1: 5.72e5; Renilla control light, replicate 2: 6.27e5
CG31219 [DRSC15140] | firefly reporter light, replicate 1: 2.52e5; firefly reporter light, replicate 2: 3.12e5; Renilla control light, replicate 1: 2.81e6; Renilla control light, replicate 2: 3.35e6
